Laboratory results reported in paper PMC9731993.
No constants are given. Whether binding was seen depends on the method and setting. Binding seen in cells or lysates may run through a third protein. Some results given as binding are weak or reduced against the parent protein; the word gives no strength.

Sequences of proteins named here, by UniProt entry; tags and fusion partners are left off.
UniProt P10415: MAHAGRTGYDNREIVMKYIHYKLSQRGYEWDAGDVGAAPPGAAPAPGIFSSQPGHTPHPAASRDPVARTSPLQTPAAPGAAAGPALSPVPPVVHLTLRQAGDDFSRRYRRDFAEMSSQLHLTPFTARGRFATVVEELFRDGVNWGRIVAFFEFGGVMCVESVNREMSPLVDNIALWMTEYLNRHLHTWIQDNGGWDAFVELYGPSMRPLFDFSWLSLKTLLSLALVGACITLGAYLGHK

Biological target: Beclin-1 (human (endogenous in A2780CP and COC1/DDP)) (UniProt Q14457)
Assay: co-IP; endogenous proteins in lysates of A2780CP and COC1/DDP cells, NT control or CUL4A/DDB1 knock-down; interaction of BECN1 with BCL2 and ATG14L; precipitating antibody not stated

binding: binds
Substance: BCL2 (from UniProt P10415 1-239)
